Values from PubChem BioAssay AID504774 (Drosophila RNAi Screening Center, 2011)
Purpose: 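Fly genes whose loss alters survival after alkylation damage to DNA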 (primary screen). System: Drosophila Kc167 cells. Reagents: long dsRNA against Drosophila genes, about 0.25 µg dsRNA per well. Duration: about 6 days: 3 days knock-down, then 3 days with or without MMS. Conditions: methyl methanesulphonate 0.004% (w/v) for 3 days after knock-down. Read-out: 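ATP-dependent luminescence as a measure of live cells in MMS-exposed wells, quantile normalised within each plate, with replicate values also given as a mean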. Direction: mean viability with MMS and viability with MMS: higher = more surviving cells after MMS.
The screen tested about 23,000 reagents; below is an unselected part of those that have a named target and a result. 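Values are quantile-normalised luminescence on an arbitrary scale; higher means more cells surviving MMS.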 Reagents against one gene are numbered here. Names joined by + are all predicted targets of the reagent. Further read-outs or replicates are left out here. No sequences are given here.

| target | reagent | mean viability with MMS | viability with MMS, replicate 1 |
| --- | --- | --- | --- |
| Or43b | 1 | 3.61e6 | 4.15e6 |
| ben | 1 | 3.73e6 | 4.28e6 |
| ben | 2 | 3.54e6 | 4.01e6 |
| Las | 1 | 3.40e6 | 3.83e6 |
| CG8420 | 1 | 3.42e6 | 3.86e6 |
| Ref2 | 1 | 3.74e6 | 4.30e6 |
| Tengl2 | 1 | 3.53e6 | 4.04e6 |
| CG6142 | 1 | 3.35e6 | 3.76e6 |
| Rab3 | 1 | 3.44e6 | 3.79e6 |
| hoip | 1 | 2.77e6 | 3.43e6 |
| CG13133 | 1 | 3.79e6 | 4.12e6 |
| senju | 1 | 3.40e6 | 3.73e6 |
| CG16813 | 1 | 3.62e6 | 4.05e6 |
| ppk20 | 1 | 4.12e6 | 5.10e6 |
| TM9SF2 | 1 | 3.33e6 | 3.66e6 |
| CG13607 | 1 | 3.40e6 | 3.83e6 |
| CG13894 | 1 | 3.13e6 | 3.60e6 |
| CG13894 | 2 | 3.66e6 | 4.16e6 |
| LanA | 1 | 3.58e6 | 4.12e6 |
| fy | 1 | 3.47e6 | 3.98e6 |

Only “mean viability with MMS” (6 entries from above):
CG16813 = 3.62e6
ppk20 = 4.12e6
TM9SF2 = 3.33e6
CG13607 = 3.40e6
CG13894 #1 = 3.13e6
CG13894 #2 = 3.66e6

Additional reagents follow.
| target | reagent | mean viability with MMS | viability with MMS, replicate 1 |
| --- | --- | --- | --- |
| CG1146 | 1 | 3.49e6 | 3.97e6 |
| VAChT | 1 | 3.48e6 | 3.90e6 |
| VAChT | 2 | 3.52e6 | 4.07e6 |
| Alp8 | 1 | 3.42e6 | 3.87e6 |
| Or23a | 1 | 3.42e6 | 3.81e6 |
| CG33017 | 1 | 3.43e6 | 3.79e6 |
| CG33017 | 2 | 3.66e6 | 4.05e6 |
| CG34337 | 1 | 3.49e6 | 4.01e6 |
| CG13564 | 1 | 3.73e6 | 4.23e6 |
| Dref | 1 | 3.24e6 | 3.75e6 |
| Tim8 | 1 | 3.63e6 | 3.99e6 |
| Fum1 | 1 | 3.55e6 | 4.11e6 |
| Rai1 | 1 | 3.51e6 | 4.11e6 |
| tll | 1 | 3.59e6 | 4.10e6 |
| Osi24 | 1 | 3.63e6 | 4.22e6 |
| COX4 | 1 | 3.14e6 | 3.49e6 |
| Rpn9 | 1 | 3.89e6 | 4.24e6 |
| Ctl1 | 1 | 3.40e6 | 3.82e6 |
| CG33255 (retired record) + hpRNA:CR32205 | 1 | 3.62e6 | 4.09e6 |
| CG33255 (retired record) + hpRNA:CR32205 | 2 | 3.58e6 | 4.04e6 |
| CG5103 | 1 | 3.67e6 | 4.21e6 |
| psidin | 1 | 3.64e6 | 4.23e6 |
| Nazo | 1 | 3.42e6 | 3.85e6 |
| GstO3 | 1 | 3.62e6 | 4.14e6 |
| CG31213 | 1 | 3.69e6 | 4.25e6 |
| CG31213 | 2 | 3.57e6 | 4.01e6 |
